Some of the results follow. Residues, ends and D or L forms follow the SMILES beside them. *: point of attachment. Cbz = O=C(OCc1ccccc1)*
Key:
Assay in all cases: log2 fold change, soluble protein after heating vs DMSO (PISA); higher = thermal stabilisation; K562 cells, 10 uM, 30 min; active = over 0.2 and 3.5 SD of the protein, either way, in both replicates (recomputed)
IRAK-1-4 Inhibitor I = compound: C1COCCN1CCN2C3=CC=CC=C3N=C2NC(=O)C4=CC(=CC=C4)[N+](=O)[O-] [IRAK-1-4 Inhibitor I]
Outline: (§1)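 Soluble protein was quantified by TMTpro 16plex LC-MS/MS after channel sums were equalised. It was obtained as the supernatant after 21,000xg for 90 min from pooled aliquots of K562 cells (2×10^6 cells/mL, 10 μM compound, 30 min) heated for 3 min across 48°C-58°C and extracted in PBS with 0.5% NP-40 at 4°C. Thermal stability values are relative to control samples and come from duplicates. They are given as log2 fold changes.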

Chains of the proteins cited; added tags and fusions are not shown. Lines headed by an entry give the natural chain unless they say otherwise; changes in a name come on top.
UniProt O75716, whole entry, looked up: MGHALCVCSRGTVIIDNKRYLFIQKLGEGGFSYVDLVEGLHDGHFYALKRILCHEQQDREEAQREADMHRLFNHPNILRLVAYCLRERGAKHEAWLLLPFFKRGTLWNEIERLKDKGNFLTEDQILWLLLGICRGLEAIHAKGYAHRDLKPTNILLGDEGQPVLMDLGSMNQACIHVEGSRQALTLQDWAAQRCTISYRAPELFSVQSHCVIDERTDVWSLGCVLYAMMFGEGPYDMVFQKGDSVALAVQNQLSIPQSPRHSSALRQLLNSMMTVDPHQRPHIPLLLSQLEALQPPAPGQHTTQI
UniProt Q7Z698: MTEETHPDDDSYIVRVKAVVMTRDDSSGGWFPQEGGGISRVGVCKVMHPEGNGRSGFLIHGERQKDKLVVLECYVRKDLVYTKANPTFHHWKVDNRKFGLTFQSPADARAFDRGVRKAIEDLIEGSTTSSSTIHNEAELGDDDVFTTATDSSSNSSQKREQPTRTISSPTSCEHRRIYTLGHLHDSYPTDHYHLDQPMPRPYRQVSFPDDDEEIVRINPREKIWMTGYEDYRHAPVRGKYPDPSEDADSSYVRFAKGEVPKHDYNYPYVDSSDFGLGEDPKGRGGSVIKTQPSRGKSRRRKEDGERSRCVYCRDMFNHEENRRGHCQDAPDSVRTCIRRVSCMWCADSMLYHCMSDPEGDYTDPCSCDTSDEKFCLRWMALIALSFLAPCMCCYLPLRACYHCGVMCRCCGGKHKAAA
UniProt P35325: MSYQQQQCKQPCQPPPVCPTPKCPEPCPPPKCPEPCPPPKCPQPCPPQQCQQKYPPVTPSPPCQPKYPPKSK
UniProt Q16384, whole entry, looked up: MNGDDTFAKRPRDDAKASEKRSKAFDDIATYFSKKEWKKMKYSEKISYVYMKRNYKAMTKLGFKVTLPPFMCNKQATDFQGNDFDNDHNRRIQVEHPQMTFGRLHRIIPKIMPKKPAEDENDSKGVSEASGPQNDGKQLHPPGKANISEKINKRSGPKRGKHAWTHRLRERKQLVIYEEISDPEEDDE
UniProt P43308: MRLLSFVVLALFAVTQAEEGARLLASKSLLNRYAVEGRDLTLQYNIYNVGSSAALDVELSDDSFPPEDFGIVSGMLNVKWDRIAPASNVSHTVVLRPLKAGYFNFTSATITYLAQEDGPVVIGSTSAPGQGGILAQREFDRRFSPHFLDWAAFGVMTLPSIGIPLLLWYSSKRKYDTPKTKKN
UniProt Q9Y365: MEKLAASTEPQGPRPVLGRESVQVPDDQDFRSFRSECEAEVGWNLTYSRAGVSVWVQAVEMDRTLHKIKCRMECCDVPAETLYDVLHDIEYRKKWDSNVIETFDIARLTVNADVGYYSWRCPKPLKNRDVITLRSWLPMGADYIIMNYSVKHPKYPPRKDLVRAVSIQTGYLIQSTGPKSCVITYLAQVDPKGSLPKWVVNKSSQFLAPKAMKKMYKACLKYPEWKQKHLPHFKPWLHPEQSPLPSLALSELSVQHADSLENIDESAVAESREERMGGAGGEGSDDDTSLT
UniProt Q9P246, whole entry, looked up: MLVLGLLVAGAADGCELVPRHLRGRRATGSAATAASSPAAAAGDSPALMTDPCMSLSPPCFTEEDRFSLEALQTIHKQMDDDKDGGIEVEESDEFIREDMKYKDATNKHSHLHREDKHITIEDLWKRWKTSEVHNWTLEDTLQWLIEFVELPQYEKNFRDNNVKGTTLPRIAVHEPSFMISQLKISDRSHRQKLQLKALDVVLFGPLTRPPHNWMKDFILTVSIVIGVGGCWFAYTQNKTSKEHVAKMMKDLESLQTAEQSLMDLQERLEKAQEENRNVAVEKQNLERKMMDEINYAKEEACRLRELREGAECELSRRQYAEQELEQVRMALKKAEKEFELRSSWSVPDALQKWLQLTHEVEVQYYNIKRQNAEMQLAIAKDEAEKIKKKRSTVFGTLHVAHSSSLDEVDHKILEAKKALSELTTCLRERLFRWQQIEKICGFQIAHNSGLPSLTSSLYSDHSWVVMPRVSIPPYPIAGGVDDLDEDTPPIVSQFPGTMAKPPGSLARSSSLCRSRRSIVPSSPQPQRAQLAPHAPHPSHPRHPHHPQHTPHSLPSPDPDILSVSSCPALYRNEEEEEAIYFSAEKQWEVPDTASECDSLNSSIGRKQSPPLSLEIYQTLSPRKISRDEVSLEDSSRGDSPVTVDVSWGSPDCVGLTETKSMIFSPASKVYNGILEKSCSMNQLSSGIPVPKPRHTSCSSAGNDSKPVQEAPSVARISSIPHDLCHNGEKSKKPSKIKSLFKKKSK
UniProt P81877: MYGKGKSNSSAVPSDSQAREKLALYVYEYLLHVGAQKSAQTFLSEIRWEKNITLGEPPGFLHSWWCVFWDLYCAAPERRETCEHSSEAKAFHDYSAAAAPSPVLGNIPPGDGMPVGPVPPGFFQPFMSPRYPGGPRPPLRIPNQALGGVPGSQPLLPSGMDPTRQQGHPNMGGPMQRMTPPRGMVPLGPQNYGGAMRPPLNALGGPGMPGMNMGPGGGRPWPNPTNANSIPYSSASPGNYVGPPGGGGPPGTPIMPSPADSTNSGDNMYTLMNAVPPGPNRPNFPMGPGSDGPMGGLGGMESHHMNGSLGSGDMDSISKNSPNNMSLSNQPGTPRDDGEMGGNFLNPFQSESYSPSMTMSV
UniProt O94768: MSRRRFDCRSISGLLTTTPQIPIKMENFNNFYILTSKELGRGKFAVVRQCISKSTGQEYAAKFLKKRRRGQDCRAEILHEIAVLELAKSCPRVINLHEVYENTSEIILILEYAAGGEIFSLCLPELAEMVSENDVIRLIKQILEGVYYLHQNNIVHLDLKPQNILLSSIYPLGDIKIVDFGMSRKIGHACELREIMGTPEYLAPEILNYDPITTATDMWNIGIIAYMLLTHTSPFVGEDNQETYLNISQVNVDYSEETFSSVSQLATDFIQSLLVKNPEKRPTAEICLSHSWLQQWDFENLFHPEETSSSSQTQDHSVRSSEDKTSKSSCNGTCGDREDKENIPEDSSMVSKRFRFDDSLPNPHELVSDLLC
UniProt Q7Z699: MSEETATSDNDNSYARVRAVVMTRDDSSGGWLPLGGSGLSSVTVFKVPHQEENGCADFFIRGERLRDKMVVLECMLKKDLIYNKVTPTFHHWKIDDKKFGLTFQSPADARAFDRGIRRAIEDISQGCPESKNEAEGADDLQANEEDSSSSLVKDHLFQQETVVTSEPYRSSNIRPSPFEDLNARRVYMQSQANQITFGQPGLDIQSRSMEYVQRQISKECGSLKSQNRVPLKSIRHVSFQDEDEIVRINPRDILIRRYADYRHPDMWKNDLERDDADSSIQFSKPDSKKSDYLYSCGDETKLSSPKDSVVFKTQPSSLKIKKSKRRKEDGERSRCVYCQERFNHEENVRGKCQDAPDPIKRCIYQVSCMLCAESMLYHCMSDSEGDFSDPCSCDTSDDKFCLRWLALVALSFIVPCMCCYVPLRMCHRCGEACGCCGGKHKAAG
UniProt O76061, whole entry, looked up: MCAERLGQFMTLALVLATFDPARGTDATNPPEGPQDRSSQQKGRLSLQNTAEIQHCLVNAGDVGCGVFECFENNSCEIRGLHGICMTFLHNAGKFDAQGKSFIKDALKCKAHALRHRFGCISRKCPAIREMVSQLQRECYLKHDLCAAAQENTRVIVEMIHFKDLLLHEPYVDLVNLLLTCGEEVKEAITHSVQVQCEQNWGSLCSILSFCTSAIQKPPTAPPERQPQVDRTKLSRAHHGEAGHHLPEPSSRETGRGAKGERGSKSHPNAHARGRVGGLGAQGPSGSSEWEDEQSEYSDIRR
UniProt Q56A73: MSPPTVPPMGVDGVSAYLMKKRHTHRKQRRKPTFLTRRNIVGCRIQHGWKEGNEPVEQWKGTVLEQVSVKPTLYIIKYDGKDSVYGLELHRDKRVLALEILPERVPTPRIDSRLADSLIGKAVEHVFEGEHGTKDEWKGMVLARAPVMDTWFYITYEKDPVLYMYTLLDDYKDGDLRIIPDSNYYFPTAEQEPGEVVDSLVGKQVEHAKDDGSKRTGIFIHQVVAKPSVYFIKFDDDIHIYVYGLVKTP
UniProt Q68D10: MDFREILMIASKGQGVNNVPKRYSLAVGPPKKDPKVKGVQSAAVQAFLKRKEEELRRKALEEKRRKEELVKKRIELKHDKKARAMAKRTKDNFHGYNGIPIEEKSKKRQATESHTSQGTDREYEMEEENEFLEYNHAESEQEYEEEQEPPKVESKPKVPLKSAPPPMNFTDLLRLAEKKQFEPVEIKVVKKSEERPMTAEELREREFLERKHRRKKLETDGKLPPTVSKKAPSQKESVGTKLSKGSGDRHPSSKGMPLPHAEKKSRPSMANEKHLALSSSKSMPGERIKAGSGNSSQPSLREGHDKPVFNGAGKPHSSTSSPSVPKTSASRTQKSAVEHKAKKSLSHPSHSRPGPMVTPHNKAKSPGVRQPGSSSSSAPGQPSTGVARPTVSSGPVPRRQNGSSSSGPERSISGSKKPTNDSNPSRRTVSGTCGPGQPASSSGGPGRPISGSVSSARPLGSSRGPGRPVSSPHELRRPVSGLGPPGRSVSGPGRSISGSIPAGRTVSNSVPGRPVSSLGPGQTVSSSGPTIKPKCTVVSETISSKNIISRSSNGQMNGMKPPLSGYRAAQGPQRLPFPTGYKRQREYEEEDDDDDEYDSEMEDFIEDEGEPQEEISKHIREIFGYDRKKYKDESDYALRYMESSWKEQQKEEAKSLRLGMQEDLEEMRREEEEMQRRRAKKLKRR
UniProt Q12772: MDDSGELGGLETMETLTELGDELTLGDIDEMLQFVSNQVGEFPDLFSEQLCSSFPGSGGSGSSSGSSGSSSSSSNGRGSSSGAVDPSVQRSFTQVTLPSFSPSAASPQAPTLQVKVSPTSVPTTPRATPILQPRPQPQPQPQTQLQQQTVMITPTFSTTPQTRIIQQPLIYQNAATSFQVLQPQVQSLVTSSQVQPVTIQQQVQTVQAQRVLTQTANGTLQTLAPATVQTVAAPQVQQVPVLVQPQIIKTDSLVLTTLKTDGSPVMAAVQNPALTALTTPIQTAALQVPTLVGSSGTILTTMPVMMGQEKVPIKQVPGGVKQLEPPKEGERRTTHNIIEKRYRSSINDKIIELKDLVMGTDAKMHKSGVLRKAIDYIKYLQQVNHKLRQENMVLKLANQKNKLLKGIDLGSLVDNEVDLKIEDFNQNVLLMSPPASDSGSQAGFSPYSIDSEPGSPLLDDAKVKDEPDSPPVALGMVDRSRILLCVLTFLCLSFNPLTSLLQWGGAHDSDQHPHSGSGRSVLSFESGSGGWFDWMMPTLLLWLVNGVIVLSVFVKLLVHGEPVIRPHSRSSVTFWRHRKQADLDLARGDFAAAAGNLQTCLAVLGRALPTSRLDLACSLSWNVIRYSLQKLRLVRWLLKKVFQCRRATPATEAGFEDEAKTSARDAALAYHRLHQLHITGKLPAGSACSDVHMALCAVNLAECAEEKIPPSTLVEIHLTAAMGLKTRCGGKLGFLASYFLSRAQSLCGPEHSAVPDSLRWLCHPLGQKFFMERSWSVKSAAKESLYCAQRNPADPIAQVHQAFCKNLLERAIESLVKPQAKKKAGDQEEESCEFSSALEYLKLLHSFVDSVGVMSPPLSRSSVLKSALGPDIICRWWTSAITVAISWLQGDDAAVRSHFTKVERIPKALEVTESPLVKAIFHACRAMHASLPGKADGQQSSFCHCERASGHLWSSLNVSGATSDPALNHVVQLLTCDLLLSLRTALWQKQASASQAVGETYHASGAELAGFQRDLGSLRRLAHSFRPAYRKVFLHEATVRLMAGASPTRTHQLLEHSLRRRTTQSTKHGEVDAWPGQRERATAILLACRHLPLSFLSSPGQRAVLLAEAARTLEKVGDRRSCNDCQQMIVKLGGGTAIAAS
UniProt Q11206: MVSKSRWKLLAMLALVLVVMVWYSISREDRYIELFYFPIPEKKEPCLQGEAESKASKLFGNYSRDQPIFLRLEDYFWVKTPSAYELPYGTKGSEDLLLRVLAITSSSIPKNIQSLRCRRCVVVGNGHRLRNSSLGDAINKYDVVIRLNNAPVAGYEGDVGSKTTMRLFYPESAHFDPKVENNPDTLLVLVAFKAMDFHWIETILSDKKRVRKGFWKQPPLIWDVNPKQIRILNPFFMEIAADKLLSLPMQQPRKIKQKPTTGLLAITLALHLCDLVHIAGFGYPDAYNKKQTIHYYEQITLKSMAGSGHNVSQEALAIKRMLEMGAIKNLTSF
UniProt Q9BWW4: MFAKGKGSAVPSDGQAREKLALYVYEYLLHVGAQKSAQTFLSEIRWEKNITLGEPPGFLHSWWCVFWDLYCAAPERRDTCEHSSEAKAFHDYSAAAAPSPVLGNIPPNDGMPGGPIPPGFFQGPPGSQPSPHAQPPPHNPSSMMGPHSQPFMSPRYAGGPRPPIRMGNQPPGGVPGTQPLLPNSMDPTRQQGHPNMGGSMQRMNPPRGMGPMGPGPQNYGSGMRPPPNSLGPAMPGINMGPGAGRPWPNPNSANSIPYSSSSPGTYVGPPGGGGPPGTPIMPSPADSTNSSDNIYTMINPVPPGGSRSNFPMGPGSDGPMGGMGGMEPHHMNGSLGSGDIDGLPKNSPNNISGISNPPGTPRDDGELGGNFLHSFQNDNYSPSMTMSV

[1] = compound: CC(C)(O)CC(=O)NCCn1ccc2ncnc(Nc3ccc(Oc4cccc(C(F)(F)F)c4)c(Cl)c3)c21
Outline: as §1

[2] = compound: CC(C)C1=C2N=C(C=C(N2N=C1)NCC3=CC=CC=C3)NCCCCCCN
Outline: as §1

pinometostat = compound: CC(C)N(C[C@H]1O[C@@H](n2cnc3c(N)ncnc32)[C@H](O)[C@@H]1O)[C@H]1C[C@@H](CCc2nc3cc(C(C)(C)C)ccc3[nH]2)C1 [pinometostat]
Outline: as §1

[3] = compound: CC(=O)c1cnc2ccc(-c3cc(Cl)c(O)c(Cl)c3)nc2c1N[C@H]1CC[C@H](CN(C)C)CC1
Outline: as §1

ralimetinib = compound: CC(C)(C)Cn1c(N)nc2ccc(-c3[nH]c(C(C)(C)C)nc3-c3ccc(F)cc3)nc21 [ralimetinib]
Outline: as §1

[4] = compound: CC(C)C[C@@H](C=O)NC(=O)[C@H](CC(C)C)NC(=O)[C@H](CC(C)C)NC(=O)OCc1ccccc1
Outline: as §1

[5] = compound: CC1=C(C2=C(C=C1)C(=O)C3=CC=CC=C3N2CCCN)C
Outline: as §1

ibrutinib = compound: C=CC(=O)N1CCC[C@@H](n2nc(-c3ccc(Oc4ccccc4)cc3)c3c(N)ncnc32)C1 [ibrutinib]
Outline: as §1

[6] = compound: CC1=C(C(CC(=O)N1)C2=CC=C(C=C2)C(F)(F)F)C(=O)NC3=C(C=C4C(=C3)C=NN4)F
Outline: as §1

Measured: log2 fold change

STK16 (UniProt O75716)
inactive: IRAK-1-4 Inhibitor I 0.157 | [1] 0.238 | [2] -0.298 | pinometostat -0.183

SRC isoform 2 (UniProt P12931)
inactive: IRAK-1-4 Inhibitor I -0.018 | [3] -0.251 | ralimetinib -0.136 | [1] -0.22 | [2] 0.159 | [4] 0.05 | pinometostat 0.087 | [5] 0.02

SPPL3 (UniProt Q8TCT6)
inactive: [2] -0.595

SPRED2 (UniProt Q7Z698)
inactive: [3] -0.051

SPRR2B (UniProt P35325)
inactive: ibrutinib 0.347 | [1] -0.168 | [2] 0.254 | [6] -0.059

SSX1 (UniProt Q16384)
inactive: ibrutinib 0.14 | [3] 0.019 | [1] 0.152

SSR2 (UniProt P43308)
inactive: [6] 0.283

SPEN (UniProt Q96T58)
inactive: ibrutinib 0.036 | [3] 0.1 | ralimetinib -0.027 | [1] 0.043 | [2] 0.091 | [4] 0.209 | [6] 0.01 | [5] 0.085

SPATS2L isoform 3 (UniProt Q9NUQ6)
inactive: [3] 0.046 | [1] 0.044

STK19 (UniProt P49842)
inactive: [3] -0.316 | ralimetinib -0.313 | [4] 0.197

STARD10 (UniProt Q9Y365)
inactive: [1] -0.327 | [2] -0.415

STIM2 isoform 2 (UniProt Q9P246)
inactive: [3] -0.206 | [1] -0.032 | [2] -0.278 | [6] -0.238 | [5] 0.033

SS18 (UniProt Q15532)
inactive: ibrutinib -0.1 | [3] -0.087 | ralimetinib -0.088 | [2] -0.012 | [4] -0.136 | [6] 0.013 | [5] 0.304

SSBP2 (UniProt P81877)
inactive: ibrutinib 0.081 | ralimetinib -0.027 | [1] -0.089 | [4] 0.151

STK17B (UniProt O94768)
inactive: IRAK-1-4 Inhibitor I -0.12 | ibrutinib -0.235 | [2] -0.262 | pinometostat 0.033

SPRED1 (UniProt Q7Z699)
inactive: [3] -0.177 | ralimetinib -0.019 | [1] -0.039 | [4] 0.039

SREBF1 isoform 4 (UniProt P36956)
inactive: IRAK-1-4 Inhibitor I 0.008 | ibrutinib 0.025 | [1] -0.404 | [2] -0.077 | pinometostat -0.088

SRCIN1 (UniProt Q9C0H9)
inactive: ibrutinib -0.081 | [3] -0.169 | ralimetinib 0.147 | [2] -0.068 | [4] 0.052

SPATS2 (UniProt Q86XZ4)
inactive: [2] -0.265

SRGAP1 (UniProt Q7Z6B7)
inactive: IRAK-1-4 Inhibitor I 0.011 | ibrutinib 0.137 | ralimetinib -0.005 | [1] -0.008 | [4] 0.042 | pinometostat 0.087 | [6] 0.002 | [5] -0.072

Taken from above (two entries):
SPRED1 (UniProt Q7Z699)
inactive: [3] -0.177 | ralimetinib -0.019 | [1] -0.039 | [4] 0.039

SREBF1 isoform 4 (UniProt P36956)
inactive: IRAK-1-4 Inhibitor I 0.008 | ibrutinib 0.025 | [1] -0.404 | [2] -0.077 | pinometostat -0.088

Continued:

STC2 (UniProt O76061)
inactive: ibrutinib -0.02 | ralimetinib -0.085 | [2] 0.361 | [4] -0.023 | [6] -0.031

SPIN4 (UniProt Q56A73)
inactive: IRAK-1-4 Inhibitor I 0.07 | [2] -0.079 | pinometostat 0.051

SPP2 (UniProt Q13103)
inactive: ibrutinib 0.069 | [3] 0.167 | [1] 0.15 | [2] 0.18 | [5] -0.156

SQOR (UniProt Q9Y6N5)
inactive: [1] 0.231 | [2] -0.076

SPTY2D1 (UniProt Q68D10)
inactive: [1] 0.134

SREBF2 (UniProt Q12772)
inactive: IRAK-1-4 Inhibitor I 0.016 | ibrutinib -0.007 | [1] 0 | [2] 0.012 | pinometostat -0.02 | [6] 0.006

ST3GAL4 isoform 4 (UniProt Q11206)
inactive: ibrutinib 0.065 | [3] 0.01 | [1] 0.047 | [2] -0.213 | [6] 0.022 | [5] 0.071

ST3GAL1 (UniProt Q11201)
inactive: [1] -0.038

SSBP3 (UniProt Q9BWW4)
inactive: ibrutinib 0.005 | [3] -0.162 | ralimetinib -0.099 | [1] -0.091 | [2] 0.098 | [4] -0.086 | [6] -0.06 | [5] 0.121

SPINT1 (UniProt O43278)
inactive: IRAK-1-4 Inhibitor I -0.153 | ralimetinib -0.174 | [1] -0.02 | [2] 0.125 | [4] -0.041 | pinometostat 0.02

SPATA33 isoform 2 (UniProt Q96N06)
inactive: ibrutinib 0.004 | [3] 0.026 | ralimetinib -0.029 | [2] 0.208 | [4] -0.027 | [6] -0.095 | [5] -0.036

SRCAP (UniProt Q6ZRS2)
inactive: ibrutinib 0 | ralimetinib 0.036 | [2] 0.046 | [4] 0.12 | pinometostat 0.037 | [5] 0.103
active: IRAK-1-4 Inhibitor I -0.42

Reference: the supplement of paper PMC10849652
